PubChem BioAssay AID330 (DTP/NCI, 2004)
The list shows only some results of the screen, not a fair sample: it is rich in T/C values a quarter to a half above the control, in often repeated tests (any T/C) and in doses without a T/C. Further doses and runs are listed elsewhere. T/C gives the treated animals as a percentage of the vehicle group. Some doses have a count of surviving animals in place of a T/C: the source files T/C as zero there, which appears to mark a toxic dose or a test without result, not a measured value. Some survivor counts are full or nearly so, which does not show that the dose was tolerated: survival well below the control is almost never listed, so the zero probably covers shortened survival too. Counts of survivors are from the toxicity check (mostly the fifth day) where no day follows; animals may have died later. Schedule codes are those of the source, read here as Q, the interval in days (D) or hours (H), X, the number of doses. Where survival is the endpoint, the PubChem record calls one and a half times the control and up active, and a quarter to a half above the control has no call in these data; cut-offs in other NCI protocols can differ. Some T/C values are followed by the survivors on the day toxicity was checked, most often the fifth; without a count, all were alive then. Some entries were tested several times; the results are listed from low to high. Marks such as (2×) give the number of equal values in this list.

Test system: P388 leukemia ip, CD2F1 mice, survival T/C
Test: NCI In Vivo Anticancer Drug Screen. Data for tumor model P388 Leukemia (intraperitoneal) in CD2F1 (CDF1) mice
Settings: T/C endpoint: median survival time, higher T/C = longer survival
[1] = dose: 60.0 mg/kg/injection, schedule: Q01DX009 (ip), vehicle: saline + alcohol

In the case of `CCOC(=O)Nc1cc2c(c(N)n1)N=C(c1ccccc1)CO2`, the T/C (dose: 50.0 mg/kg/injection, schedule: Q01DX005 (ip), vehicle: DMSO, evaluated on day 20) was 105 % of control, the T/C (dose: 50.0 mg/kg/injection, schedule: Q01DX005 (ip), vehicle: DMSO, evaluated on day 30) was 100, 115, 119, 126 % of control and the T/C (dose: 50.0 mg/kg/injection, schedule: Q01DX005 (ip), vehicle: Klucel (hydroxypropylcellulose) (HPC), evaluated on day 20) was 115 % of control. For the same compound, the T/C (dose: 50.0 mg/kg/injection, schedule: Q01DX005 (ip), vehicle: Klucel (hydroxypropylcellulose) (HPC), evaluated on day 30) was 102, 107, 108 % of control (2×), the T/C (dose: 50.0 mg/kg/injection, schedule: Q01DX005 (ip), vehicle: alcohol, evaluated on day 20) was 105 % of control and the T/C (dose: 50.0 mg/kg/injection, schedule: Q01DX005 (ip), vehicle: alcohol, evaluated on day 30) was 94, 104 (2×), 105 % of control. For the same compound, the T/C (dose: 50.0 mg/kg/injection, schedule: Q01DX005 (ip), vehicle: other, evaluated on day 20) was 108 % of control, the T/C (dose: 50.0 mg/kg/injection, schedule: Q01DX005 (ip), vehicle: other, evaluated on day 30) was 101, 105, 108, 110 % of control and the T/C (dose: 50.0 mg/kg/injection, schedule: Q01DX005 (ip), vehicle: saline with Tween-80, evaluated on day 20) was 112 % of control. The T/C (dose: 50.0 mg/kg/injection, schedule: Q01DX005 (ip), vehicle: saline with Tween-80, evaluated on day 30) was 104, 108, 109, 110, 112, 126 % of control, the T/C (dose: 100.0 mg/kg/injection, schedule: Q01DX005 (ip), vehicle: DMSO, evaluated on day 20) was 111 % of control and the T/C (dose: 100.0 mg/kg/injection, schedule: Q01DX005 (ip), vehicle: DMSO, evaluated on day 30) was 116 [5 of 6 alive], 122, 127, 147 % of control. The T/C (dose: 100.0 mg/kg/injection, schedule: Q01DX005 (ip), vehicle: Klucel (hydroxypropylcellulose) (HPC), evaluated on day 20) was 118 % of control, the T/C (dose: 100.0 mg/kg/injection, schedule: Q01DX005 (ip), vehicle: Klucel (hydroxypropylcellulose) (HPC), evaluated on day 30) was 111, 116 (2×), 123 % of control and the T/C (dose: 100.0 mg/kg/injection, schedule: Q01DX005 (ip), vehicle: alcohol, evaluated on day 20) was 115 % of control. The T/C (dose: 100.0 mg/kg/injection, schedule: Q01DX005 (ip), vehicle: alcohol, evaluated on day 30) was 93, 100, 102, 108 % of control, the T/C (dose: 100.0 mg/kg/injection, schedule: Q01DX005 (ip), vehicle: other, evaluated on day 20) was 109 % of control and the T/C (dose: 100.0 mg/kg/injection, schedule: Q01DX005 (ip), vehicle: other, evaluated on day 30) was 110, 111, 112, 113 % of control. The T/C (dose: 100.0 mg/kg/injection, schedule: Q01DX005 (ip), vehicle: saline with Tween-80, evaluated on day 20) was 116 % of control, the T/C (dose: 100.0 mg/kg/injection, schedule: Q01DX005 (ip), vehicle: saline with Tween-80, evaluated on day 30) was 108, 115 (2×), 119, 126, 140, 144 % of control and the T/C (dose: 200.0 mg/kg/injection, schedule: Q01DX005 (ip), vehicle: DMSO, evaluated on day 20) was 121 % of control. The T/C (dose: 200.0 mg/kg/injection, schedule: Q01DX005 (ip), vehicle: DMSO, evaluated on day 30) was 135, 140, 150, 156 % of control, the T/C (dose: 200.0 mg/kg/injection, schedule: Q01DX005 (ip), vehicle: Klucel (hydroxypropylcellulose) (HPC), evaluated on day 20) was 127 % of control and the T/C (dose: 200.0 mg/kg/injection, schedule: Q01DX005 (ip), vehicle: Klucel (hydroxypropylcellulose) (HPC), evaluated on day 30) was 105, 119, 120, 127 % of control. The T/C (dose: 200.0 mg/kg/injection, schedule: Q01DX005 (ip), vehicle: alcohol, evaluated on day 20) was 102 % of control, the T/C (dose: 200.0 mg/kg/injection, schedule: Q01DX005 (ip), vehicle: alcohol, evaluated on day 30) was 106, 112, 113, 121 % of control and the T/C (dose: 200.0 mg/kg/injection, schedule: Q01DX005 (ip), vehicle: other, evaluated on day 20) was 120 % of control. The T/C (dose: 200.0 mg/kg/injection, schedule: Q01DX005 (ip), vehicle: other, evaluated on day 30) was 117, 119, 124, 125 % of control, the T/C (dose: 200.0 mg/kg/injection, schedule: Q01DX005 (ip), vehicle: saline with Tween-80, evaluated on day 20) was 125 % of control and the T/C (dose: 200.0 mg/kg/injection, schedule: Q01DX005 (ip), vehicle: saline with Tween-80, evaluated on day 30) was 112, 114, 120, 123, 128, 180 % of control. For the same compound, the T/C (dose: 400.0 mg/kg/injection, schedule: Q01DX005 (ip), vehicle: DMSO, evaluated on day 20) was 131 % of control, the T/C (dose: 400.0 mg/kg/injection, schedule: Q01DX005 (ip), vehicle: DMSO, evaluated on day 30) was 148, 166 [4 of 6 alive], 173 % of control and the survivor count (dose: 400.0 mg/kg/injection, schedule: Q01DX005 (ip), vehicle: DMSO) was 0 of 6. For the same compound, the T/C (dose: 400.0 mg/kg/injection, schedule: Q01DX005 (ip), vehicle: Klucel (hydroxypropylcellulose) (HPC), evaluated on day 20) was 131 % of control, the T/C (dose: 400.0 mg/kg/injection, schedule: Q01DX005 (ip), vehicle: Klucel (hydroxypropylcellulose) (HPC), evaluated on day 30) was 116, 120, 135, 141 % of control and the T/C (dose: 400.0 mg/kg/injection, schedule: Q01DX005 (ip), vehicle: alcohol, evaluated on day 20) was 116 % of control. For the same compound, the T/C (dose: 400.0 mg/kg/injection, schedule: Q01DX005 (ip), vehicle: alcohol, evaluated on day 30) was 108, 112, 121, 125 % of control, the T/C (dose: 400.0 mg/kg/injection, schedule: Q01DX005 (ip), vehicle: other, evaluated on day 20) was 127 % of control and the T/C (dose: 400.0 mg/kg/injection, schedule: Q01DX005 (ip), vehicle: other, evaluated on day 30) was 122, 127, 128, 138 % of control. For the same compound, the T/C (dose: 400.0 mg/kg/injection, schedule: Q01DX005 (ip), vehicle: saline with Tween-80, evaluated on day 20) was 126 % of control and the T/C (dose: 400.0 mg/kg/injection, schedule: Q01DX005 (ip), vehicle: saline with Tween-80, evaluated on day 30) was 87, 116, 125, 130 [5 of 6 alive], 135, 137 % of control.
`NC(Cc1ccccc1[N+](=O)[O-])C(=O)O` (configuration not stated) was tested, and the survivor count (dose: 400.0 mg/kg/injection, schedule: Q01DX009 (ip), vehicle: saline with Tween-80) was 5 of 6.
With `NCC(=O)CN.[Cl-].[Cl-].[Pt+2]` the T/C (dose: 50.0 mg/kg/injection, schedule: Q04DX003 (ip), vehicle: distilled water + Tween-80) was 127 % of control, the T/C (dose: 50.0 mg/kg/injection, schedule: Q04DX003 (ip), vehicle: other) was 130 % of control and the T/C (dose: 100.0 mg/kg/injection, schedule: Q04DX003 (ip), vehicle: distilled water + Tween-80) was 141 % of control. The T/C (dose: 100.0 mg/kg/injection, schedule: Q04DX003 (ip), vehicle: other) was 147 % of control, the T/C (dose: 200.0 mg/kg/injection, schedule: Q04DX003 (ip), vehicle: distilled water + Tween-80) was 138 % of control and the T/C (dose: 400.0 mg/kg/injection, schedule: Q04DX003 (ip), vehicle: distilled water + Tween-80) was 148 % of control.
`CCCCC1SC2=NCCN2C1(O)c1ccc(Cl)cc1` (configuration not stated) was tested, and the survivor count (dose: 200.0 mg/kg/injection, schedule: Q01DX005 (ip), vehicle: Klucel (hydroxypropylcellulose) (HPC)) was 0 of 6.
In the case of `CC(=O)C1=C(O)C2(O)C(=O)c3c(c(C)c4ccc(C)c(O)c4c3O)CC2C(N)C1=O` (configuration not stated), the T/C (dose: 15.0 mg/kg/injection, schedule: Q01DX009 (ip), vehicle: saline + alcohol) was 130 and 134 % of control, the T/C (dose: 30.0 mg/kg/injection, schedule: Q01DX009 (ip), vehicle: saline + alcohol) was 132 and 140 % of control and the T/C [1] was 142 and 149 % of control. For the same compound, the survivor count [1] was 2 of 6, the survivor count (dose: 120.0 mg/kg/injection, schedule: Q01DX009 (ip), vehicle: saline + alcohol) was 2 of 6 and the survivor count (dose: 200.0 mg/kg/injection, schedule: Q04DX003 (ip), vehicle: saline with Tween-80) was 3 of 6.
For `Cc1cc(C2=NCC(C)S2)ccc1OCCSCCOc1ccc(C2=NCC(C)S2)cc1C` (configuration not stated), the survivor count (dose: 50.0 mg/kg/injection, schedule: Q01DX009 (ip), vehicle: saline with Tween-80) was 6 of 6.
For `O=NN1CCCNC1=O`, the T/C (dose: 10.0 mg/kg/injection, schedule: Q01DX009 (ip), vehicle: saline with Tween-80) was 127 % of control, the T/C (dose: 25.0 mg/kg/injection, schedule: Q04DX003 (ip), vehicle: saline) was 136 % of control and the survivor count (dose: 150.0 mg/kg/injection, schedule: Q01DX009 (ip), vehicle: saline with Tween-80) was 5 of 6. For the same compound, the T/C (dose: 150.0 mg/kg/injection, schedule: Q04DX003 (ip), vehicle: saline) was 125 % of control, the survivor count (dose: 200.0 mg/kg/injection, schedule: Q04DX003 (ip), vehicle: saline) was 4 of 6 and the survivor count (dose: 400.0 mg/kg/injection, schedule: Q04DX003 (ip), vehicle: saline) was 1 of 6.
